The list shows only some results of the screen, not a fair sample: it gathers tests that were run many times, whatever their T/C, doses with no T/C, and many T/C values between a quarter and a half above the control. Other doses and runs of a compound stand elsewhere. T/C: endpoint of the treated group in % of that of the vehicle group. Some doses have a count of surviving animals in place of a T/C: the source files T/C as zero there, which appears to mark a toxic dose or a test without result, not a measured value. Some doses without a T/C left all or most animals alive at the check, yet need not have been tolerated: survival well below the control is almost never listed, so the zero probably covers shortened survival too. Counts of survivors are from the toxicity check (mostly the fifth day) where no day follows; animals may have died later. Schedules are NCI's codes, read here as Q, the interval in days (D) or hours (H), X, the number of doses. Some entries hold several experiments; the results are listed from low to high. Some molecules as drawn cover several salts, stereoisomers or complexes of the source; a dose is that of the sample tested. Where survival is the endpoint, the PubChem record calls one and a half times the control and up active, and a quarter to a half above the control has no call in these data; cut-offs in other NCI protocols can differ. Some T/C values are followed by the survivors on the day toxicity was checked, most often the fifth; where none is given, no animal had died by that day.
Tested on: P388 leukemia ip, CD2F1 mice, survival T/C
Experiment: NCI In Vivo Anticancer Drug Screen. Data for tumor model P388 Leukemia (intraperitoneal) in CD2F1 (CDF1) mice
Details: T/C endpoint: median survival time, higher T/C = longer survival
[1] = dose: 200.0 mg/kg/injection, schedule: Q01DX005 (ip), vehicle: saline with Tween-80
[2] = dose: 25.0 mg/kg/injection, schedule: Q01DX009 (ip), vehicle: saline with Tween-80
[3] = dose: 50.0 mg/kg/injection, schedule: Q01DX009 (ip), vehicle: saline with Tween-80
[4] = dose: 100.0 mg/kg/injection, schedule: Q01DX009 (ip), vehicle: saline with Tween-80
[5] = dose: 50.0 mg/kg/injection, schedule: Q01DX009 (ip), vehicle: saline
[6] = dose: 100.0 mg/kg/injection, schedule: Q01DX009 (ip), vehicle: saline
[7] = dose: 200.0 mg/kg/injection, schedule: Q01DX009 (ip), vehicle: saline
[8] = dose: 400.0 mg/kg/injection, schedule: Q01DX009 (ip), vehicle: Klucel (hydroxypropylcellulose) (HPC)
[9] = dose: 200.0 mg/kg/injection, schedule: Q01DX005 (ip), vehicle: Klucel (hydroxypropylcellulose) (HPC)
[10] = dose: 200.0 mg/kg/injection, schedule: Q01DX009 (ip), vehicle: Klucel (hydroxypropylcellulose) (HPC)
[11] = dose: 200.0 mg/kg/injection, schedule: Q01DX009 (ip), vehicle: saline with Tween-80
[12] = dose: 240.0 mg/kg/injection, schedule: Q01DX005 (ip), vehicle: Klucel (hydroxypropylcellulose) (HPC)

Which results are given for C=C(CN(C)C)C(=O)c1ccc(OC)cc1OC?
survivor count (dose: 12.5 mg/kg/injection, schedule: Q04DX002 (ip), vehicle: saline): 1 of 6 and 4 of 6; survivor count (dose: 25.0 mg/kg/injection, schedule: Q04DX002 (ip), vehicle: saline): 0 of 6; survivor count (dose: 50.0 mg/kg/injection, schedule: Q04DX002 (ip), vehicle: saline): 0 of 6; survivor count (dose: 100.0 mg/kg/injection, schedule: Q04DX002 (ip), vehicle: saline): 0 of 6; survivor count (dose: 200.0 mg/kg/injection, schedule: Q04DX002 (ip), vehicle: saline): 0 of 6; survivor count (dose: 400.0 mg/kg/injection, schedule: Q04DX002 (ip), vehicle: saline): 0 of 6

Which survivor count [1] does the source give for Cc1ccc2occ(/C=N/NC(N)=S)c(=O)c2c1 here?
The survivor count was 6 of 6.

With Cc1cccc(C)c1NC(=S)N(C)C as the molecule, how does the survivor count [2] read?
The survivor count was 6 of 6.

What about the survivor count [3] of the same molecule?
Its survivor count is 2 of 6.

What about the survivor count [4] of the same molecule?
Its survivor count is 2 of 6.

For Nc1ccccn1, which survivor count [5] is on record?
The survivor count was 0 of 6.

And the survivor count [6]?
Its survivor count is 0 of 6.

And the survivor count [7]?
Its survivor count is 0 of 6.

With CCOc1ccc2[nH]c(=S)sc2c1 as the molecule, how does the survivor count [8] read?
The survivor count was 5 of 6.

For CSC(SC)=C1C(=O)NC(=O)NC1=O, which T/C [2] is on record?
Its T/C is 126 % of control.

And the survivor count [5]?
Its survivor count is 3 of 6.

And the survivor count [6]?
The survivor count was 0 of 6.

What about the survivor count [9] of the same molecule?
The survivor count was 0 of 5.

And the survivor count [7]?
The survivor count was 0 of 6.

For O=S(=O)(O)OOS(=O)(=O)O, which survivor count [10] is on record?
The survivor count was 6 of 6.

Which survivor count [11] does the source give for N#Cc1ncc(C=P(c2ccccc2)(c2ccccc2)c2ccccc2)n(O)c1=N here?
Its survivor count is 6 of 6.

With Cc1nn(C(=O)c2ccncc2)c(C)c1N=Nc1ccc(S(N)(=O)=O)cc1 as the molecule, how does the survivor count [10] read?
The survivor count was 6 of 6.

For CCN(Cc1ccc(Cl)c(Cl)c1)c1ccc2nc(N)nc(N)c2c1C, which survivor count (dose: 50.0 mg/kg/injection, schedule: Q01DX009 (ip), vehicle: Klucel (hydroxypropylcellulose) (HPC)) is on record?
Its survivor count is 6 of 6.

And the survivor count (dose: 100.0 mg/kg/injection, schedule: Q01DX009 (ip), vehicle: Klucel (hydroxypropylcellulose) (HPC))?
Its survivor count is 0 of 6.

With O=C1OCC/C1=C1\CCCO1 as the molecule, how does the T/C [3] read?
The T/C was 125 % of control.

Which results are given for CC(C)N(C(C)C)p1n(C(C)(C)C)n1C(C)(C)C?
survivor count (dose: 50.0 mg/kg/injection, schedule: Q01DX005 (ip), vehicle: Klucel (hydroxypropylcellulose) (HPC)): 2 of 6; survivor count (dose: 100.0 mg/kg/injection, schedule: Q01DX005 (ip), vehicle: Klucel (hydroxypropylcellulose) (HPC)): 2 of 6; survivor count [9]: 0 of 6

Which survivor count (dose: 400.0 mg/kg/injection, schedule: Q04DX002 (ip), vehicle: saline with Tween-80) does the source give for Cc1ccc(NCC2CCCN3CCCCC23)c2c(=O)c3cc(O)ccc3sc12 (centres undefined) here?
Its survivor count is 3 of 6.

C[n+]1c2ccccc2c2c3c(cccc31)C(=O)c1cc(Cl)ccc1-2 (tested in a mixture with another compound) was tested. Which survivor count (dose: 25.0 mg/kg/injection, schedule: Q01DX009 (ip), vehicle: water) did it give?
Its survivor count is 2 of 6.

And the survivor count (dose: 50.0 mg/kg/injection, schedule: Q01DX009 (ip), vehicle: water)?
The survivor count was 0 of 6.

What about the survivor count (dose: 100.0 mg/kg/injection, schedule: Q01DX009 (ip), vehicle: water) of the same molecule?
Its survivor count is 0 of 6.

With CCC(=O)NCC(CN(C)C)(c1ccccc1)c1ccccc1 as the molecule, how does the survivor count (dose: 400.0 mg/kg/injection, schedule: Q01DX001 (ip), vehicle: saline with Tween-80) read?
The survivor count was 0 of 6.

With C=CC(=C)C1(O)c2ccccc2C(=O)N1C (centres undefined) as the molecule, how does the survivor count [12] read?
The survivor count was 1 of 6.

With Nc1nc(-c2ccccn2)cc(-c2cc(-c3ccccn3)nc(N)n2)n1 as the molecule, how does the survivor count [12] read?
The survivor count was 0 of 6.

For CC1OC(OC2C(OC3C[C@@]4(C)C(C[C@H](O)[C@H]5[C@H](C6(C)CCC(C(C)(C)O)O6)CCC54C)[C@]4(C)CC[C@@H](O)C(C)(C)C34)OC(CO)C(O)C2O)C(O)C(O)C1O (some centres undefined) (tested in a mixture with another compound), which survivor count [8] is on record?
Its survivor count is 1 of 6.

Which results are given for CCOC(=O)Nc1cc2c(c(N)n1)N=C(c1ccc(F)cc1)CN2?
T/C (dose: 1.3 mg/kg/injection, schedule: Q01DX005 (ip), vehicle: saline with Tween-80): 127 % of control; T/C (dose: 2.0 mg/kg/injection, schedule: Q01DX005 (ip), vehicle: saline with Tween-80): 136 % of control; T/C (dose: 3.0 mg/kg/injection, schedule: Q01DX005 (ip), vehicle: saline with Tween-80): 140 and 149 % of control; T/C (dose: 4.5 mg/kg/injection, schedule: Q01DX005 (ip), vehicle: saline with Tween-80): 138 % of control; survivor count (dose: 6.0 mg/kg/injection, schedule: Q01DX005 (ip), vehicle: saline with Tween-80): 5 of 5; survivor count (dose: 12.0 mg/kg/injection, schedule: Q01DX005 (ip), vehicle: saline with Tween-80): 1 of 5

Which results are given for CCCCC(S)CS (centres undefined)?
survivor count (dose: 100.0 mg/kg/injection, schedule: Q01DX005 (ip), vehicle: saline with Tween-80): 2 of 6; survivor count [1]: 1 of 6

Which survivor count (dose: 120.0 mg/kg/injection, schedule: Q01DX005 (ip), vehicle: saline with Tween-80) does the source give for CCO/C=C1/N=C(c2cc(OC)cc(OC)c2)OC1=O here?
Its survivor count is 5 of 6.

With COc1ccc(CSc2ncnc3nc[nH]c23)cc1 as the molecule, how does the survivor count [4] read?
Its survivor count is 6 of 6.

What does the source list for Nc1nc2c(c(=O)[nH]1)NC(CCNc1ccc(C(=O)NC(CCC(=O)O)C(=O)O)cc1)CN2 (centres undefined)?
T/C [4]: 127 % of control; survivor count (dose: 200.0 mg/kg/injection, schedule: Q01DX009 (ip), vehicle: saline sonified): 5 of 6; T/C [11]: 131 % of control [5 of 6 alive]; survivor count [11]: 4 of 6; survivor count (dose: 400.0 mg/kg/injection, schedule: Q01DX009 (ip), vehicle: saline sonified): 2 of 6; survivor count (dose: 400.0 mg/kg/injection, schedule: Q01DX009 (ip), vehicle: saline with Tween-80): 0 of 6

With COC1=CC(=N/Cl)/C=CC/1=N/Cl as the molecule, how does the survivor count (dose: 50.0 mg/kg/injection, schedule: Q01DX005 (ip), vehicle: saline) read?
Its survivor count is 0 of 5.

What about the survivor count (dose: 100.0 mg/kg/injection, schedule: Q01DX005 (ip), vehicle: saline) of the same molecule?
Its survivor count is 0 of 5.

What about the survivor count (dose: 200.0 mg/kg/injection, schedule: Q01DX005 (ip), vehicle: saline) of the same molecule?
The survivor count was 0 of 5.

For O=C(c1ccc(OCC(O)CN2CCN(c3ccccc3)CC2)cc1)c1cc2ccccc2c2ccccc12 (centres undefined), which survivor count (dose: 400.0 mg/kg/injection, schedule: Q04DX003 (ip), vehicle: alcohol) is on record?
The survivor count was 4 of 6.

And the survivor count (dose: 400.0 mg/kg/injection, schedule: Q04DX003 (ip), vehicle: other)?
Its survivor count is 4 of 6.

How did the survivor count (dose: 25.0 mg/kg/injection, schedule: Q04DX003 (ip), vehicle: saline) turn out when CCCCCCCC[N+](C)(C)CC#CC[N+](C)(C)CCCCCCCC was run?
Its survivor count is 0 of 6 and 4 of 6.

What about the survivor count (dose: 50.0 mg/kg/injection, schedule: Q04DX003 (ip), vehicle: saline) of the same molecule?
The survivor count was 0 of 6.

And the survivor count (dose: 100.0 mg/kg/injection, schedule: Q04DX003 (ip), vehicle: saline)?
The survivor count was 0 of 6.

And the survivor count (dose: 200.0 mg/kg/injection, schedule: Q04DX003 (ip), vehicle: saline)?
The survivor count was 0 of 6.

What about the survivor count (dose: 400.0 mg/kg/injection, schedule: Q04DX003 (ip), vehicle: saline) of the same molecule?
The survivor count was 0 of 6.

CC1(C)N=C(N)N=C(N)N1c1ccc(CCc2ccc(S(=O)(=O)F)cc2)c(Cl)c1 was tested. Which T/C (dose: 50.0 mg/kg/injection, schedule: Q04DX003 (ip), vehicle: saline with Tween-80) did it give?
Its T/C is 136 % of control.

What about the T/C (dose: 75.0 mg/kg/injection, schedule: Q04DX003 (ip), vehicle: saline sonified) of the same molecule?
Its T/C is 131 % of control [5 of 6 alive].

From PubChem BioAssay AID330 (DTP/NCI, 2004)
